Measurements as given in patent publication US20140271682, “HUMAN HOMEOBOX GENE VENTX AND MACROPHAGE TERMINAL DIFFERENTIATION AND ACTIVATION, COMPOSITIONS AND METHODS THEREOF” (published 2014).
The comparison behind a weaker result is the experiment's own reference, which may not be listed here. Where a protein sequence is shown, tags need not be part of it.

Target: T1, VentX (Homo sapiens) (UniProt O95231)
T1 sequence (limits assumed): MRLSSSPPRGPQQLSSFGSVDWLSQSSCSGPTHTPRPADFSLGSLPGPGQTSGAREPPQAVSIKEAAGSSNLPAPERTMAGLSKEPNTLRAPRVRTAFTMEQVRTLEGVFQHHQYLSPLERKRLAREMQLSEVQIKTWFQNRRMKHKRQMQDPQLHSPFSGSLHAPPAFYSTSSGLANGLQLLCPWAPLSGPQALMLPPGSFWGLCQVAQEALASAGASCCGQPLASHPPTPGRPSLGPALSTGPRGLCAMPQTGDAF
Assay: EMSA
Settings: interaction largely abrogated by mutation; protein translated in vitro; protein details: pCS2-VentX, TNT reticulocyte lysate; variant of M-CSFR promoter probe wild type

## CTGCGTCTCTAAAATAAGAAGAATAAATTTTTAAAAGATATGC (double strand) [M-CSFR promoter probe mutant]
  binding result: binds more weakly
